Results are given in words; binding and its absence hold for the method and conditions named. Binding seen in cells or lysates may run through a third protein. A yes stands for co-enrichment or nearness to the bait. Other partners may have been found. For part of these data: Tags and fused reporters may be left off the sequences shown.
T1: Utp8-FLAG (S. cerevisiae) (UniProt P53276)
T1 sequence: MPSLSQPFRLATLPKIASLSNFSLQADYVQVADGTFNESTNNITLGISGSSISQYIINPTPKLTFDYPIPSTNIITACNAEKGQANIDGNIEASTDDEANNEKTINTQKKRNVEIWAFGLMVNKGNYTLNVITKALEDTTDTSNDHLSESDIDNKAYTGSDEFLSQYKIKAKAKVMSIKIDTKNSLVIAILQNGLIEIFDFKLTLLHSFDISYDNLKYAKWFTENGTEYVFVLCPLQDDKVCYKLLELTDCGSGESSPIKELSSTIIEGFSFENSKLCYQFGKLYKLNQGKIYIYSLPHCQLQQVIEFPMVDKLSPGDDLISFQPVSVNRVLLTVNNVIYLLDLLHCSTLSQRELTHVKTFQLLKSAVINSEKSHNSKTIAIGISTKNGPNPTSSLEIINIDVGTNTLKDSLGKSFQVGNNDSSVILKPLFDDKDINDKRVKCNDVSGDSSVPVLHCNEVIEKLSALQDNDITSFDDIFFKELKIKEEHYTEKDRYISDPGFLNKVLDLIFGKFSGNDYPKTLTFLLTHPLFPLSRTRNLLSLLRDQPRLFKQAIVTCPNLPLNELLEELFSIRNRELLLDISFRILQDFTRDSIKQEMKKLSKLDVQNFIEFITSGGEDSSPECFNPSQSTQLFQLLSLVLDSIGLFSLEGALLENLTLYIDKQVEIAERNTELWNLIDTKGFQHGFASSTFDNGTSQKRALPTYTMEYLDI

T2: Nan1-HA (S. cerevisiae) (UniProt Q02931)
T2 sequence: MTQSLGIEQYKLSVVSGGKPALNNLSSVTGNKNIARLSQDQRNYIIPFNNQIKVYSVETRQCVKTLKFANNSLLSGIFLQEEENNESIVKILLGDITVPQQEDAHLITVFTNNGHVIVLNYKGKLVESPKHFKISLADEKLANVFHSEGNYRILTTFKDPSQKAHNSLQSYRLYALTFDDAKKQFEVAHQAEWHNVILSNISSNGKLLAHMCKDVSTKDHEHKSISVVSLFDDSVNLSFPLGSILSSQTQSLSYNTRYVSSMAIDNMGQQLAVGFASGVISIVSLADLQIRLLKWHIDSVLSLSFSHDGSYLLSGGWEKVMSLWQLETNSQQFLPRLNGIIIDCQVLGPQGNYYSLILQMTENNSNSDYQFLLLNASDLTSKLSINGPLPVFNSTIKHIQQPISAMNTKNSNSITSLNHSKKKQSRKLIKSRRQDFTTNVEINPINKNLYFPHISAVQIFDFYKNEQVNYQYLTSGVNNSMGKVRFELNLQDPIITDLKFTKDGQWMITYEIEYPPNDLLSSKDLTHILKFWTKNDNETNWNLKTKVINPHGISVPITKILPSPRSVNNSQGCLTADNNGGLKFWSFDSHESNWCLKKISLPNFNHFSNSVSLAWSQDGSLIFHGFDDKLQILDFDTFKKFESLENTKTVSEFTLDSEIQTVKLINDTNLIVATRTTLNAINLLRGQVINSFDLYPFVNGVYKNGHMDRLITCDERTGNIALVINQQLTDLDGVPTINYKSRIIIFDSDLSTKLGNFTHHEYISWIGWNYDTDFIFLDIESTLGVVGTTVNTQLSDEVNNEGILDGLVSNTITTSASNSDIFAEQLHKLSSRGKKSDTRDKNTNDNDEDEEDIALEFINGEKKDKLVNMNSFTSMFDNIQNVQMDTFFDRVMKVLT

T3: Utp4-TAP (S. cerevisiae) (UniProt Q06679)
T3 sequence: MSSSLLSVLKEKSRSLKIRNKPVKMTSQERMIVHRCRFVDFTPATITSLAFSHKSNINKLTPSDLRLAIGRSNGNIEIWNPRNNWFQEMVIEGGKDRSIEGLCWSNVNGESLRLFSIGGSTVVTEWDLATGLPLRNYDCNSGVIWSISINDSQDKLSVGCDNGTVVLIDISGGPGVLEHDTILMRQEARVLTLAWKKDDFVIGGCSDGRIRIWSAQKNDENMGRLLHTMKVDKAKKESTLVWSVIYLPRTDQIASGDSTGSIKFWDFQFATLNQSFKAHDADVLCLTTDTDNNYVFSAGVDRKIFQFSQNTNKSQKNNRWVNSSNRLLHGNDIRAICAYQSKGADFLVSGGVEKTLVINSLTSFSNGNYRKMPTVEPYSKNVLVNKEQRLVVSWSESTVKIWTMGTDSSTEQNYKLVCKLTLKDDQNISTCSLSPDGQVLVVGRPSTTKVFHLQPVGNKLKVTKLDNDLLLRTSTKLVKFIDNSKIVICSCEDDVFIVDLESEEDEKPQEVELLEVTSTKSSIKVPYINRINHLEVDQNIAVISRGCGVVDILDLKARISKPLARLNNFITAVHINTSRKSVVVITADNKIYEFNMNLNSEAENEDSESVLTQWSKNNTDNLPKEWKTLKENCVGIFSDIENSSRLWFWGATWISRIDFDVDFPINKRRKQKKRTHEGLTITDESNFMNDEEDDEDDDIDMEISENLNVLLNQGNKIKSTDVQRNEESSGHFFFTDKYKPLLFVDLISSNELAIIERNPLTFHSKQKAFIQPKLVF

T4: Utp15-FLAG (S. cerevisiae) (UniProt Q04305)
T4 sequence: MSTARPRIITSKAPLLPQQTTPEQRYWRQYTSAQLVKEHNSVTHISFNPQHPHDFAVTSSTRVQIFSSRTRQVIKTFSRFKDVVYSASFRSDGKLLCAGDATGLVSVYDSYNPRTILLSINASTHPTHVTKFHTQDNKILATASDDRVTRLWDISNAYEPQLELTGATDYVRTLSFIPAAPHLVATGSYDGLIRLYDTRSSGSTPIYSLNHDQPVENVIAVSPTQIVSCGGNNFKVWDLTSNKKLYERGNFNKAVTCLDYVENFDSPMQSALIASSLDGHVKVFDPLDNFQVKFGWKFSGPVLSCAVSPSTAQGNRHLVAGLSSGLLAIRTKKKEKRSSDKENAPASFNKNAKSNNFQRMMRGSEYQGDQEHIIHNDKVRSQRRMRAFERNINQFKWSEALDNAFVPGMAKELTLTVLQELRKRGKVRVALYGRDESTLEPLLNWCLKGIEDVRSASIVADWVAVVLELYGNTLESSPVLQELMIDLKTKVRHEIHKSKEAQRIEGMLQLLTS

B1: Utp9 (protein, UniProt P38882 1-575)
chain: MGSSLDLVASFSHDSTRFAFQASVAQKNNVDIYPLNETKDYVVNSSLVSHIDYETNDMKVSDVIFFGWCSDLIDTQSSNIKRKLDEDEGTGESSEQRCENFFVNGFPDGRIVVYSSNGKDIVNIIKNKKEILGADTDESDIWILDSDKVVKKLQYNNSKPLKTFTLVDGKDDEIVHFQILHQNGTLLVCIITKQMVYIVDPSKRRPSTKYSFEISDAVACEFSSDGKYLLIANNEELIAYDLKEDSKLIQSWPVQVKTLKTLDDLIMALTTDGKINNYKIGEADKVCSIVVNEDLEIIDFTPINSKQQVLISWLNVNEPNFESISLKEIETQGYITINKNEKNNADEADQKKLEEKEEEAQPEVQHEKKETETKINKKVSKSDQVEIANILSSHLEANSTEILDDLMSGSWTEPEIKKFILTKINTVDHLSKIFLTISKSITQNPWNEENLLPLWLKWLLTLKSGELNSIKDKHTKKNCKHLKSALRSSEEILPVLLGIQGRLEMLRRQAKLREDLAQLSMQEGEDDEIEVIEHSNVISNPLQDQASPVEKLEPDSIVYANGESDEFVDASEYKD
B2: Utp5 (protein, UniProt Q04177 1-643)
chain: MDSPVLQSAYDPSGQYLCYVTVALDKQRVGVQPTQRATSSGVDTVWNENFLYLEDSKLKVTCLKWVNLASSDTVAIILGMNNGEIWLYSVLANEVTYKFTTGNSYEIKDIDLMGNQLWCIDSSDAFYQFDLLQFKLLQHFRINNCVQLNKLTIVPAGDSVAQLLVASHSISLIDIEEKKVVMTFPGHVSPVSTLQVITNEFFISGAEGDRFLNVYDIHSGMTKCVLVAESDIKELSHSGQADSIAVTTEDGSLEIFVDPLVSSSTKKRGNKSKKSSKKIQIVSKDGRKVPIYNAFINKDLLNVSWLQNATMPYFKNLQWREIPNEYTVEISLNWNNKNKSADRDLHGKDLASATNYVEGNARVTSGDNFKHVDDAIKSWERELTSLEQEQAKPPQANELLTETFGDKLESSTVARISGKKTNLKGSNLKTATTTGTVTVILSQALQSNDHSLLETVLNNRDERVIRDTIFRLKPALAVILLERLAERIARQTHRQGPLNVWVKWCLIIHGGYLVSIPNLMSTLSSLHSTLKRRSDLLPRLLALDARLDCTINKFKTLNYEAGDIHSSEPVVEEDEDDVEYNEELDDAGLIEDGEESYGSEEEEEGDSDNEEEQKHTSSKQDGRLETEQSDGEEEAGYSDVEME

How the values were obtained:
[1] = target: T1, Utp8-FLAG (S. cerevisiae); assay: affinity purification with mass spectrometry; only Utp8-FLAG and Utp9 co-expressed in SF21 cells (bacmid K2204); one-step anti-FLAG purification, FLAG peptide elution; SDS-PAGE and MS
Nan1-HA (S. cerevisiae) = target: T2, Nan1-HA (S. cerevisiae); assay: affinity purification with mass spectrometry; bacmid K2000 (all seven tUTP candidates); two-step: anti-FLAG eluate (Utp15-FLAG) purified again on anti-HA affinity matrix with Nan1-HA as bait, HA peptide elution; SDS-PAGE, Coomassie, MS of bands
Utp4-TAP (S. cerevisiae) [2] = target: T3, Utp4-TAP (S. cerevisiae); assay: affinity purification with mass spectrometry; Utp4-TAP, Utp5, Utp8, Utp9 and Utp15-FLAG co-expressed in SF21 cells (bacmid K2123), without Nan1 and Utp10; one-step, bait Utp4-TAP on IgG Sepharose, TEV elution; SDS-PAGE, Coomassie, MS of bands
[3] = target: T4, Utp15-FLAG (S. cerevisiae); assay: affinity purification with mass spectrometry; bacmid K2123 (five pentamer proteins); two-step: IgG Sepharose/TEV eluate (Utp4-TAP) purified again on anti-FLAG affinity matrix with Utp15-FLAG as bait, FLAG peptide elution; SDS-PAGE, Coomassie, MS of bands
[4] = target: T4, Utp15-FLAG (S. cerevisiae); assay: affinity purification with mass spectrometry; Utp4, Utp5, Utp8, Utp9, Utp10, Utp15-FLAG and Nan1-HA co-expressed in SF21 cells (bacmid K2000); one-step, bait Utp15-FLAG on anti-FLAG affinity matrix, lysate cleared by low-speed centrifugation, buffer A100+ (20 mM Tris-HCl pH 8, 100 mM KCl, 5 mM Mg(OAc)2, 0.5% Triton X-100, 0.1% Tween-20), 4°C, FLAG peptide elution; SDS-PAGE, Coomassie, MS of bands
[5] = target: T4, Utp15-FLAG (S. cerevisiae); assay: affinity purification with mass spectrometry; only Utp5 and Utp15-FLAG co-expressed in SF21 cells (bacmid K2124); one-step anti-FLAG purification, FLAG peptide elution; SDS-PAGE and MS
Utp4-TAP (S. cerevisiae) [6] = target: T3, Utp4-TAP (S. cerevisiae); assay: affinity purification with mass spectrometry; only Utp4-TAP and Utp5 co-expressed in SF21 cells (bacmid K1721); one-step, bait Utp4-TAP on IgG-coupled beads, TEV elution; SDS-PAGE and MS
Utp4-TAP (S. cerevisiae) [7] = target: T3, Utp4-TAP (S. cerevisiae); assay: affinity purification with mass spectrometry; only Utp4-TAP, Utp5 and Utp15-FLAG co-expressed in SF21 cells (bacmid K2209); one-step, bait Utp4-TAP on IgG-coupled beads, TEV elution; SDS-PAGE and MS

Binder	binding [1]	binding (Nan1-HA (S. cerevisiae))	binding (Utp4-TAP (S. cerevisiae) [2])	binding [3]	binding [4]	binding [5]	binding (Utp4-TAP (S. cerevisiae) [6])	binding (Utp4-TAP (S. cerevisiae) [7])
B1	binds	binds weakly	binds	binds	binds	–	–	–
B2	–	binds weakly	binds	binds	binds	binds	binds	binds
